The values that follow come from patent publication US20200296959A1, “DISINFECTION AND/OR STERILIZATION OF AGRICULTURAL CROPS” (priority 2019, published 2020).

This data set is described as follows: EO concentration maintained in sealed barrel (SEC sensor). To be noted: 17.6 g EO ampoule.

Take `C1CO1` [ethylene oxide]: the “average ethylene oxide concentration maintained” value is, setting by setting: (barrel filled with 150 pounds (30 reams) of paper, two cycles) 13.9 mg/L; (empty airtight 48.8 gallon barrel, three cycles) 70.3 mg/L.
